Data from patent US20160200802A1.
Results are given in words; binding and its absence hold for the method and conditions named. Some entries that bind do so weakly or less than the wild type.

Chains of the proteins cited; added tags and fusions are not shown. Residues count along the entry.
UniProt P03420, residues 26-574: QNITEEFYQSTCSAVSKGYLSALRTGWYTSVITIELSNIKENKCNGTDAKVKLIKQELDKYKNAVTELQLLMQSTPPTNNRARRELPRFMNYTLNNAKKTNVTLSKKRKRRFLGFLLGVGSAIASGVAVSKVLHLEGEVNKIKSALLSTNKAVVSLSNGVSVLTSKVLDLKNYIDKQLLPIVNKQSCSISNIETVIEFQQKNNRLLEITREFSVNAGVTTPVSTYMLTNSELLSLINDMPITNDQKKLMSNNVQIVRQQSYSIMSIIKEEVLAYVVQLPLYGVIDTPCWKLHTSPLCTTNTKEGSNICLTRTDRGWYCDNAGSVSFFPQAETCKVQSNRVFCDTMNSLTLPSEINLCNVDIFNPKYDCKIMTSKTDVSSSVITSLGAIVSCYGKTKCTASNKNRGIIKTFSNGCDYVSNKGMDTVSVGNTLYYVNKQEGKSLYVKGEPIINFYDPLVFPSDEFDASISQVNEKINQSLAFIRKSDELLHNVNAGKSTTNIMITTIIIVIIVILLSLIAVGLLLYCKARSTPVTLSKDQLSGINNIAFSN

Target: full length F protein from RSV (A2 strain), expressed in transfected 293F cells (RSV (A2 strain)) (UniProt P03420)
Experiment: intracellular staining of 293F cells transfected with full length RSV F (A2)

B1: HMB2435 (antibody, human IgG1, V domains shown)
VH: QVQLVESGGGVVQPGRPLRLSCAASGFAFNNFALHWVRQAPGKGPEWLAAVSYDGTSPYYAESVRARFSISRDNSKKTFYLQLDSLRPEDTAVYYCARGLGSGSYSWIGYFYAMDVWGRGTTVTVSS
VL: QSALTQPASVSGSPGQSITISCTGTSSDVGGYVYVAWYQQHPGTAPKLIIYDVSDRPSGVSNRFSGSKSGNTASLTISGLQAEDDADYYCISYTDRNTVVFGGGTKLTVL
- binding: binds
